Drawing on publication PMC7862700, this text covers binding signal for 39 sequences.

The other results are listed elsewhere or left out. The exact form of the protein is not confirmed.

For the assay, the target named is T1, ELF2 (UniProt Q15723).
T1 sequence: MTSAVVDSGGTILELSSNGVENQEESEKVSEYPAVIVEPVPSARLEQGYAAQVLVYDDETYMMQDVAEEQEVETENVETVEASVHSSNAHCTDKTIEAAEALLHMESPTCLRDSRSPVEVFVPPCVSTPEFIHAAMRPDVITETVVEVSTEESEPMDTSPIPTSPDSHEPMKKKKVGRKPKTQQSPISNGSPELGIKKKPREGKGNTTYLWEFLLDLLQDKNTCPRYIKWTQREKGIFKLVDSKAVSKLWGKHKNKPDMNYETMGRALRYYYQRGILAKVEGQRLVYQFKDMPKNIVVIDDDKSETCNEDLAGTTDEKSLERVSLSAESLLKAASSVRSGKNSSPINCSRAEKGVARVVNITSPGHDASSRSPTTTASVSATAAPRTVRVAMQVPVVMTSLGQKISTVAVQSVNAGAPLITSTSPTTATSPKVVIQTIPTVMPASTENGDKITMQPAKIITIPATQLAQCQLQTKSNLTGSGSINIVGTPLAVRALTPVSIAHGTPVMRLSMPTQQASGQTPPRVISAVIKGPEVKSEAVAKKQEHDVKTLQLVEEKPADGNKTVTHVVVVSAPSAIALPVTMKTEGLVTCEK
Nature of the assay: DAPPL (digital affinity profiling via proximity ligation, sequencing). Conditions: 10 mM Tris-HCl pH 7.5, 50 mM NaCl, 1 mM DTT, 4% glycerol, room temperature, 30 min; GST-TFs on glutathione beads, 16-mer random dsDNA library, 0.1% …; high values mean tight binding; double strand, one strand shown; scale: fold enrichment (6-mer frequency, TF over GST control).
The sequence TCTAAA gave a binding signal of 1.14.
TCCTCT returned a binding signal of 1.72.
GCCCCT yielded a binding signal of 1.24.
TAAGGT gave a binding signal of 1.
In turn, TTAACT came in with a binding signal of 1.2.
Turning to GTTTTC, the binding signal stood at 1.23.
For CCTCCC the value was 1.46; for TTCTCG, 1.32.
In the case of TAAGCT, the binding signal was 1.12.
For the sequence ACCATA, the binding signal is 1.11.
With AAAACA, the binding signal came to 1.33.
With CTTCTA, the binding signal was determined as 1.37.
Consider CGCTCC, for which the binding signal came to 1.27.
In the case of ATCTTT, the binding signal stood at 1.18.
TTGTAC: the binding signal was 1.34.
For AGCCCT the value was 1.1; for TACTGA, 1.07; for CCGAAG, 1.01.
With TGCTTT, the binding signal stood at 1.08.
As for TAAAGT, the binding signal was found to be 1.11.
Regarding GATTCT, the binding signal came to 1.21.
For CATACT the value was 1.35; for CGACTA, 1.32; for CATGCT, 1.17.
For TGCACT the value was 1.45; for CTTCAA, 1.27; for AAAACT, 1.2.
As to CTATTC, the binding signal worked out at 1.32.
GGTTTA returned a binding signal of 1.07.
On to TACTTC, for which the binding signal came out at 4.89.
As for AATCCC, the figure is 1.3; as for ACTTAC, 1.16.
As for ACAATA, the binding signal stood at 1.23.
As for TGTTAT, the figure is 1.38; as for TTACAA, 1.11.
Sequence ATCATC yielded a binding signal of 1.08.
Turning to GACTCT, the binding signal came out at 1.23.
For the sequence ATAATT, the binding signal is 1.37.
For the sequence ATCTGT, the binding signal was found to be 1.2.
